Taken from: PubChem BioAssay AID1508597 (Cure First, 2020)
Screen: 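Genes whose silencing sensitises or protects ovarian cancer cells against rucaparib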 (primary screen). System: human ovarian carcinoma lines grown from tumours: OCI-P5x (papillary serous) and OCI-C5x (clear cell). Knock-down reagent: siRNA pool against human genes, 1.25 pmol siRNA per well. Time to read-out: 72 h or 96 h, depending on the cell culture. Challenge: rucaparib 20 µM (about IC30) or vehicle, present until read-out. Rucaparib or vehicle: Rucaparib. Cell line: OCI-P5x (serous). Measurement: 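ATP luminescence measured at 72 or 96 h according to the culture, then normalised and expressed as percent viability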. Scale: viability, normalised: higher = more viable cells remaining. Call rule: 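Active when normalised viability falls below 80 percent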. Calls: active = viability under 80%; inactive = viability 80% or more.
Shown is a random part of the about 2,100 reagents, in one setting of the screen. 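Calls flag viability under 80% in either arm, not effects specific to rucaparib; the reference for percent is not stated.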 Reagents against one gene are numbered here. Some reagents were tested in more than one well and are listed for each. Not given: the 100% reference.

target gene,reagent no.,technical replicate,"viability, normalised (%)",Outcome
PRDM15 (PR/SET domain 15),1,1,53.6,active
PRDM15 (PR/SET domain 15),1,2,61.5,active
PRDM15 (PR/SET domain 15),1,3,50.2,active
MORC4 (MORC family CW-type zinc finger 4),1,1,83.2,inactive
MORC4 (MORC family CW-type zinc finger 4),1,2,74,active
MORC4 (MORC family CW-type zinc finger 4),1,3,82,inactive
DDX17 (DEAD-box helicase 17),1,1,93.1,inactive
DDX17 (DEAD-box helicase 17),1,1,60.8,active
DDX17 (DEAD-box helicase 17),1,2,87.1,inactive
DDX17 (DEAD-box helicase 17),1,2,93.7,inactive
DDX17 (DEAD-box helicase 17),1,3,81.4,inactive
DDX17 (DEAD-box helicase 17),1,3,103,inactive
H4C3 (H4 clustered histone 3),1,1,53.4,active
H4C3 (H4 clustered histone 3),1,2,52.4,active
H4C3 (H4 clustered histone 3),1,3,52,active
MAPK9 (mitogen-activated protein kinase 9),1,1,77.6,active
MAPK9 (mitogen-activated protein kinase 9),1,2,81.5,inactive
MAPK9 (mitogen-activated protein kinase 9),1,3,66.8,active
AGO3 (argonaute RISC catalytic component 3),1,1,67.5,active
AGO3 (argonaute RISC catalytic component 3),1,2,60.8,active
AGO3 (argonaute RISC catalytic component 3),1,3,64.9,active
"BRAF (B-Raf proto-oncogene, serine/threonine kinase)",1,1,79.3,active
"BRAF (B-Raf proto-oncogene, serine/threonine kinase)",1,2,79.4,active
"BRAF (B-Raf proto-oncogene, serine/threonine kinase)",1,3,53.6,active
KMT2A (lysine methyltransferase 2A),1,1,40.6,active
KMT2A (lysine methyltransferase 2A),1,2,36.8,active
KMT2A (lysine methyltransferase 2A),1,3,41.2,active
MED16 (mediator complex subunit 16),1,1,38.5,active
MED16 (mediator complex subunit 16),1,2,43.1,active
MED16 (mediator complex subunit 16),1,3,37.3,active
FXR2 (FMR1 autosomal homolog 2),1,1,56.3,active
FXR2 (FMR1 autosomal homolog 2),1,2,63.7,active
FXR2 (FMR1 autosomal homolog 2),1,3,68.3,active
BRIP1 (BRCA1 interacting DNA helicase 1),1,1,86.1,inactive
BRIP1 (BRCA1 interacting DNA helicase 1),1,1,89.3,inactive
BRIP1 (BRCA1 interacting DNA helicase 1),1,2,87.5,inactive
BRIP1 (BRCA1 interacting DNA helicase 1),1,2,88.4,inactive
BRIP1 (BRCA1 interacting DNA helicase 1),1,3,88.4,inactive
BRIP1 (BRCA1 interacting DNA helicase 1),1,3,81.9,inactive
"POLD1 (DNA polymerase delta 1, catalytic subunit)",1,1,59.3,active
"POLD1 (DNA polymerase delta 1, catalytic subunit)",1,2,78.3,active
"POLD1 (DNA polymerase delta 1, catalytic subunit)",1,3,74.4,active
PHF20 (PHD finger protein 20),1,1,40.9,active
PHF20 (PHD finger protein 20),1,2,48.2,active
PHF20 (PHD finger protein 20),1,3,41.2,active
G2E3 (G2/M-phase specific E3 ubiquitin protein ligase),1,1,47.5,active
G2E3 (G2/M-phase specific E3 ubiquitin protein ligase),1,2,58.6,active
G2E3 (G2/M-phase specific E3 ubiquitin protein ligase),1,3,57.9,active
EGFR (epidermal growth factor receptor),1,1,95.2,inactive
EGFR (epidermal growth factor receptor),1,2,91.6,inactive
EGFR (epidermal growth factor receptor),1,3,84.9,inactive
NRK (Nik related kinase),1,1,82.9,inactive
NRK (Nik related kinase),1,2,76.5,active
NRK (Nik related kinase),1,3,80.6,inactive
RAD51D (RAD51 paralog D),1,1,51.5,active
RAD51D (RAD51 paralog D),1,2,49.1,active
RAD51D (RAD51 paralog D),1,3,51.2,active
RAD51D (RAD51 paralog D),2,1,88,inactive
RAD51D (RAD51 paralog D),2,2,105,inactive
RAD51D (RAD51 paralog D),2,3,84.7,inactive
SGF29 (SAGA complex associated factor 29),1,1,71.8,active
SGF29 (SAGA complex associated factor 29),1,2,87.8,inactive
SGF29 (SAGA complex associated factor 29),1,3,104,inactive
STK17B (serine/threonine kinase 17b),1,1,161,inactive
STK17B (serine/threonine kinase 17b),1,2,107,inactive
STK17B (serine/threonine kinase 17b),1,3,129,inactive
AMELX (amelogenin X-linked),1,1,64.9,active
AMELX (amelogenin X-linked),1,2,54.2,active
AMELX (amelogenin X-linked),1,3,61.9,active
"MUC16 (mucin 16, cell surface associated)",1,1,66.3,active
"MUC16 (mucin 16, cell surface associated)",1,2,58.1,active
"MUC16 (mucin 16, cell surface associated)",1,3,85.6,inactive
GDE1 (glycerophosphodiester phosphodiesterase 1),1,1,56.6,active
GDE1 (glycerophosphodiester phosphodiesterase 1),1,2,61.6,active
GDE1 (glycerophosphodiester phosphodiesterase 1),1,3,66.1,active
